Reference: PMC4287450, “PRDM9 Drives Evolutionary Erosion of Hotspots in Mus musculus through Haplotype-Specific Initiation of Meiotic Recombination”
For at least one entry, the source does not settle the construct or the ends of the probe. For some of these results: A negative result means that nothing was seen under these conditions. For some of these results: At least one verdict was read from the data and is not stated in words by the source.

Protein sequences, listed by entry. Tags and fused reporters are not part of them. Residues count along the entry.
UniProt Q96EQ9, 513-843: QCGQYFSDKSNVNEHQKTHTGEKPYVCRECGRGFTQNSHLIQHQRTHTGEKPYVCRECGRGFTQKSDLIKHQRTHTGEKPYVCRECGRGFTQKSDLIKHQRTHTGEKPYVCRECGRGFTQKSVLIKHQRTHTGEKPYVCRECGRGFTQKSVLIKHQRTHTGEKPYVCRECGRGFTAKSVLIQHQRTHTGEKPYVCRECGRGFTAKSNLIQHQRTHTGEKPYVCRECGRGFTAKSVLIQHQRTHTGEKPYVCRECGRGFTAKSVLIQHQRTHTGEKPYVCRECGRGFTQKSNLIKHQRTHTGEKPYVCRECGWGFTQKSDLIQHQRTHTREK

What was measured:
[1] = biological target: PRDM9Dom2 (Mus musculus domesticus (B6 allele)) (UniProt Q96EQ9); assay: competition with a labelled probe; settings: 20x unlabeled, only oligo 1 competes; EMSA as in Billings et al. 2013 (buffer, pH, temperature not given); unlabeled competitor dsDNA at 20x labeled DNA; recombinant protein
[2] = biological target: PRDM9Dom2 (Mus musculus domesticus (B6 allele)) (UniProt Q96EQ9); assay: EMSA; settings: EMSA as in Billings et al. 2013 (buffer, pH, temperature not given); unlabeled competitor dsDNA at 20x labeled DNA; recombinant protein; label: 5' biotin (forward primer); probe letters rebuilt from the primers and the genome

| Sequence | binding result [1] | binding result [2] |
| --- | --- | --- |
| AAGTGCTCCATGGACAGTAGCTTCTGCCTTTCCTTCCCAATAGTGCAGTTGGCTTTCTT (double strand) [chr1_158 oligo 2] | no binding | – |
| TACACTGGGCTTCAGGCTGCCATATGTAAATGCTGGGAGCGGTATATACCCATCTACAACATGAAGCTACTGTAACTTTAGTTTTTTTTCTCTCTAAACTCATAGTCCTGGGA (double strand) [chr1 185.33 Mb CAST PCR product] | – | binds |
| TCTGCAGAGTCGACCCCAGCCCTCTCCTTTCTGTTGGCAGTAGAGTGCCCGACTAACCCTTCT (double strand) [chr1_158 oligo 4] | no binding | – |
| TGCAGTTGGCTTTCTTTCATTTTGCTTTCAGCTCTGCAGAGTCGACCCC (double strand) [chr1_158 oligo 3] | no binding | – |
